Measured values published in PMC10091876.
Results are given in words; binding and its absence hold for the method and conditions named. Binding seen in cells or lysates may run through a third protein. These calls come from enrichment with a bait or labelling near it, and not all partners need be listed. Tags and fused reporters may be left off the sequences shown.

Protein sequences, listed by entry. Tags and fused reporters are not part of them.
UniProt Q9D8Y0: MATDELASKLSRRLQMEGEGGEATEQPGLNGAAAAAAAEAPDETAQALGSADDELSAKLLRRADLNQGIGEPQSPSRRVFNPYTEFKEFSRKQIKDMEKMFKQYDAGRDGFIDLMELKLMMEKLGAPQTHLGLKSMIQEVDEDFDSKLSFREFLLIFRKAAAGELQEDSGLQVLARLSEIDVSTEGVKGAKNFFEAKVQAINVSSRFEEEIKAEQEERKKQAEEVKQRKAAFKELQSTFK

Legend:
[1] = target: T1, Flag-Calhm2 (calcium homeostasis modulator 2) (UniProt Q8VEC4); assay: affinity purification with mass spectrometry; Flag-Calhm2 immunoprecipitated (Flag) from lysates of BV2 cells overexpressing Calhm2, against BV2 control cells; silver staining, mass spectrometry
T1 sequence: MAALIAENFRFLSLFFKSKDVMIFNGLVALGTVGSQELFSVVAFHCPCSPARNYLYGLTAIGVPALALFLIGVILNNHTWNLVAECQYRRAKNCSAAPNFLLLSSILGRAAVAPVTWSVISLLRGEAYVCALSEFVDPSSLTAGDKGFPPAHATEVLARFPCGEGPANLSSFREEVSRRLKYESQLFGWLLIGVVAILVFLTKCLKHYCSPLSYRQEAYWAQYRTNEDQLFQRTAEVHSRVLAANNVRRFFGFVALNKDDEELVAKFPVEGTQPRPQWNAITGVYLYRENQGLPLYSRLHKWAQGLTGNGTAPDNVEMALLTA

[2] = target: T2, Calhm2-HA (HA tag at the C-terminus of the mouse Calhm2 gene, transgenic mice) (mouse) (UniProt Q8VEC4); assay: affinity purification with mass spectrometry; brain tissue of Calhm2 WT and Calhm2-HA mice lysed and immunoprecipitated; mass spectrometry; tissue lysis buffer 50 mM NaCl (pH 7.4), 1 mM EDTA, 1 mM EGTA, 0.05% Triton-100; protein G agarose beads, 4 °C
T2 sequence: T1 sequence

actin-related protein 2/3 complex subunit 1 B (Arpc1B) (from UniProt Q9WV32 1-372)
binding [1]: binds

EF-hand domain family member D2 (EFhd2) (from UniProt Q9D8Y0 1-240)
binding [1]: binds

EF-hand domain family member D2 (EFhd2), mouse brain (from UniProt Q9D8Y0 1-240)
binding [2]: binds
